{"sequences": {"note": "The chains behind the UniProt entries cited, without tags or fusion partners.", "UniProt Q9WTV6": "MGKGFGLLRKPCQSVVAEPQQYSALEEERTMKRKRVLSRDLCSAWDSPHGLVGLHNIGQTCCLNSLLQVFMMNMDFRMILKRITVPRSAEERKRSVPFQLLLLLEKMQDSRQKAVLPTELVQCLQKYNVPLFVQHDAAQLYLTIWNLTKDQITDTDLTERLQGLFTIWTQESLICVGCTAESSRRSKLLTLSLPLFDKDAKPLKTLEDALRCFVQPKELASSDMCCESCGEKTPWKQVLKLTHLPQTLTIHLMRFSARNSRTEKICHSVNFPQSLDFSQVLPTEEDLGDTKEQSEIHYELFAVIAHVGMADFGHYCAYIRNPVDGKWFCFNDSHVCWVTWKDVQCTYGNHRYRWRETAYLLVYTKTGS"}, "source": "paper PMC8137702", "key": {"[1]": {"target": "T1, endogenous MAVS (mouse RAW264.7 cells and MEFs) (mouse (endogenous in RAW264.7 and MEFs)) (UniProt Q8VCF0)", "T1 sequence": "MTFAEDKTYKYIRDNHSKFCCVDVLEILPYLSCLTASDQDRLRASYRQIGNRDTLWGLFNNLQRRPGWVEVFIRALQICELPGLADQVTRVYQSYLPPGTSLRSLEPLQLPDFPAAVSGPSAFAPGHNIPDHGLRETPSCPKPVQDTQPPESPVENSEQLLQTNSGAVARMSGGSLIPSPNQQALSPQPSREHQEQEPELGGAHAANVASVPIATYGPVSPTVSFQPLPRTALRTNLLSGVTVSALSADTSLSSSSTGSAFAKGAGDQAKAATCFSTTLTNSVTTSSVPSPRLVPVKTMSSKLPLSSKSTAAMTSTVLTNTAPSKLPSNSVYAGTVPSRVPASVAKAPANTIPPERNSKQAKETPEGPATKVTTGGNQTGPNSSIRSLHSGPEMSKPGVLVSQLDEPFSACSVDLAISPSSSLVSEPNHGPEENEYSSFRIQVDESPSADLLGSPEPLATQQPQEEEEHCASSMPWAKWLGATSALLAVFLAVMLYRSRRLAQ", "assay": "co-IP"}, "[2]": {"target": "T2, endogenous IRF3 (MEFs) (mouse (endogenous in MEFs)), P70671", "T2 chain": "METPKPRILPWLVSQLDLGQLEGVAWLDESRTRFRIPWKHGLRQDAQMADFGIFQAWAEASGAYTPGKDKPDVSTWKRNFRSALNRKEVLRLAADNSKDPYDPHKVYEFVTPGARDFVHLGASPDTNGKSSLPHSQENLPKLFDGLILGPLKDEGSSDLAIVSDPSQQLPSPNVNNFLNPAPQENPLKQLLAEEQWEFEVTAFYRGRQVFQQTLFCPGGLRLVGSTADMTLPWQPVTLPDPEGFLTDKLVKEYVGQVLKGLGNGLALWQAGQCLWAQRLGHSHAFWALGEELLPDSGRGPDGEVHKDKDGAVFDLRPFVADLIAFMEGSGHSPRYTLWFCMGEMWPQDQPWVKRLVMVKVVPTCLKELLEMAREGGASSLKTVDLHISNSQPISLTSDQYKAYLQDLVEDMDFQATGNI", "assay": "native gel or EMSA", "settings": "remark: other sources report otherwise"}, "[3]": {"target": "T3, endogenous MAVS (mouse RAW264.7 cells and MEFs) (mouse (endogenous in RAW264.7 and MEFs)), Q8VCF0", "T3 chain": "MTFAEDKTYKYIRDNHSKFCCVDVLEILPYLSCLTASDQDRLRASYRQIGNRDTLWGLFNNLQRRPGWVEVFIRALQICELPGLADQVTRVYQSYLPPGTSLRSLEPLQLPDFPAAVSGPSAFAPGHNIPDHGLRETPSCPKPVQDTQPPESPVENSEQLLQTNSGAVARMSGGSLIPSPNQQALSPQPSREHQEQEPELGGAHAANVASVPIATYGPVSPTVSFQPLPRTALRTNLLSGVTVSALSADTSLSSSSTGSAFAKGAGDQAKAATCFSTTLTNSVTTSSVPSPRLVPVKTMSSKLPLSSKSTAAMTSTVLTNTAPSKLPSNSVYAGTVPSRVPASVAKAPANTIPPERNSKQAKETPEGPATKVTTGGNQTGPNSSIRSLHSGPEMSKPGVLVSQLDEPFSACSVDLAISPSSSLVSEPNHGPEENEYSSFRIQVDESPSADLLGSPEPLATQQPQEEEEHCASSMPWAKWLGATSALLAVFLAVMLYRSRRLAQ", "assay": "SDD-AGE", "settings": "remark: other sources report otherwise"}}, "note": "No constants are given. Whether binding was seen depends on the method and setting. For part of these data: Binding seen in cells or lysates may run through a third protein. Some results given as binding are weak or reduced against the parent protein; the word gives no strength.", "data": [{"molecule": "endogenous USP18 (RAW264.7 cells) (from UniProt Q9WTV6 1-368) (enzyme)", "values": [{"measurement": "binding", "setting": "[1]", "value": "binds"}]}, {"molecule": "endogenous IRF3 (MEFs), P70671 1-419 (protein) METPKPRILPWLVSQLDLGQLEGVAWLDESRTRFRIPWKHGLRQDAQMADFGIFQAWAEASGAYTPGKDKPDVSTWKRNFRSALNRKEVLRLAADNSKDPYDPHKVYEFVTPGARDFVHLGASPDTNGKSSLPHSQENLPKLFDGLILGPLKDEGSSDLAIVSDPSQQLPSPNVNNFLNPAPQENPLKQLLAEEQWEFEVTAFYRGRQVFQQTLFCPGGLRLVGSTADMTLPWQPVTLPDPEGFLTDKLVKEYVGQVLKGLGNGLALWQAGQCLWAQRLGHSHAFWALGEELLPDSGRGPDGEVHKDKDGAVFDLRPFVADLIAFMEGSGHSPRYTLWFCMGEMWPQDQPWVKRLVMVKVVPTCLKELLEMAREGGASSLKTVDLHISNSQPISLTSDQYKAYLQDLVEDMDFQATGNI", "values": [{"measurement": "binding", "setting": "[2]", "value": "binds"}]}, {"molecule": "endogenous MAVS (mouse RAW264.7 cells and MEFs), Q8VCF0 1-503 (protein) MTFAEDKTYKYIRDNHSKFCCVDVLEILPYLSCLTASDQDRLRASYRQIGNRDTLWGLFNNLQRRPGWVEVFIRALQICELPGLADQVTRVYQSYLPPGTSLRSLEPLQLPDFPAAVSGPSAFAPGHNIPDHGLRETPSCPKPVQDTQPPESPVENSEQLLQTNSGAVARMSGGSLIPSPNQQALSPQPSREHQEQEPELGGAHAANVASVPIATYGPVSPTVSFQPLPRTALRTNLLSGVTVSALSADTSLSSSSTGSAFAKGAGDQAKAATCFSTTLTNSVTTSSVPSPRLVPVKTMSSKLPLSSKSTAAMTSTVLTNTAPSKLPSNSVYAGTVPSRVPASVAKAPANTIPPERNSKQAKETPEGPATKVTTGGNQTGPNSSIRSLHSGPEMSKPGVLVSQLDEPFSACSVDLAISPSSSLVSEPNHGPEENEYSSFRIQVDESPSADLLGSPEPLATQQPQEEEEHCASSMPWAKWLGATSALLAVFLAVMLYRSRRLAQ", "values": [{"measurement": "binding", "setting": "[3]", "value": "binds"}]}]}
